# In all, about 220,000 compounds went through this assay and about 770 (0.35%) were called active. This list was built around the results that the source calls inconclusive (neither active nor inactive); the mix of calls is not that of the screen. No stated cut-off is given here; in the data, active means binding response below about 49% or above about 150%; inconclusive means no clear call, values can overlap the other calls; inactive means in between.
# Sequences of proteins named here, by UniProt entry; tags and fusion partners are left off.
# UniProt P09471, whole entry, looked up: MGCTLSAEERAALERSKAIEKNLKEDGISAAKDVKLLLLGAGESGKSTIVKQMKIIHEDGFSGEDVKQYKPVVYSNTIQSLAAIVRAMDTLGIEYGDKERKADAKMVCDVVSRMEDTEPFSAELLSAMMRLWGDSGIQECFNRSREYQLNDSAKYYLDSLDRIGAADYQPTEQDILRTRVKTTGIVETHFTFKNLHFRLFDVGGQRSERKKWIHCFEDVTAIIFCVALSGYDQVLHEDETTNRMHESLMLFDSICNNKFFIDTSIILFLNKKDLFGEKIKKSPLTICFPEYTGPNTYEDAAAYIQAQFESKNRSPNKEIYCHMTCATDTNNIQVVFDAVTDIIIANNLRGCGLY
# Biological target: Guanine nucleotide-binding protein G(o) subunit alpha (Homo sapiens) (UniProt P09471)
# Test: compounds changing RGS7 association with Galphao – biochemical, multiplexed bead flow cytometry, primary screen (AID 1439);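 further: fluorescent Galphao held in activated GDP-AlF4 state binding bead-coupled RGS7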
# Conditions: at 10 µM, actives lie on both sides
row,SMILES,binding response (% of control)
1,C=CCc1cc(C=C2C(=O)N(C)C(=O)N(C)C2=O)cc(OCC)c1OCc1ccccc1,inactive: 88.6%
2,O=c1[nH]c(O)c(C=NCCc2ccccc2)c(=O)[nH]1,inconclusive: 80.8%
3,CCN(CC)c1ccc(C=C2C(=O)NC(=S)NC2=O)cc1,inconclusive: 146%
4,CN1CCCC(C(O)(c2ccccc2)c2ccccc2)C1 (stereo not drawn),inconclusive: 107%
5,CC(C)n1c(O)c(C=NCc2ccccc2)c(=O)[nH]c1=S,inconclusive: 271%
6,CCN1CCN(C(=O)COc2ccc(S(=O)(=O)N(C)Cc3ccccc3)cc2)CC1,inactive: 79.9%
7,Cc1cc(/C=C2/C(=O)NC(=O)N(Cc3ccco3)C2=O)c(C)n1-c1ccccc1O,inconclusive: 99.5%
8,CN1C(=O)C(=Cc2sc(=O)n(-c3ccccc3)c2N2CCCCC2)C(=O)N(C)C1=O,inconclusive: 159%
9,CC1=NN(c2ccccc2)C(=O)C1/C=C1/C(=O)NC(=O)N(c2cccc(C)c2)C1=O (stereo not drawn),inactive: 107%
10,C=C(C=O)C[C@@H]1C[C@H](O)C2OC3C[C@]4(C)OC5/C=C\CC6OC7C(CC=CCC6OC5CCCC4OC3CC2O1)OC1CC2OC3CC(=O)OC3C[C@@H](C)C[C@@]2(C)OC1C[C@@H]7C (stereo partly drawn),inconclusive: 67.7%
11,Cc1nccn1Cc1ccc(Cl)nc1,inactive: 102%
12,O=C(COc1ccc(Cl)cc1)N(c1ccc(Cl)cc1)C1CN2CCC1CC2 (stereo not drawn),inconclusive: 99.5%
13,OC(c1ccccc1)(c1ccc(Cl)cc1)C1CN2CCC1CC2 (stereo not drawn),inconclusive: 70.8%
14,COc1ccc(NC(=O)c2cc([N+](=O)[O-])ccc2N2CCNCC2)cc1,inconclusive: 110%
15,CCOc1cc(/C=C2\C(=O)NC(=O)N(C)C2=O)cc([N+](=O)[O-])c1O,inconclusive: 97.1%
16,O=C(Nc1ccccc1)c1cc([N+](=O)[O-])ccc1N1CCNCC1,inconclusive: 84.1%
17,O=C(/C=C/c1c[nH]c2ccccc12)c1c(O)n(CCc2ccccc2)c(=O)[nH]c1=O,inconclusive: 124%
18,C/C(=N\NC(=O)c1ccccc1O)c1c(O)n(Cc2ccccc2)c(=O)[nH]c1=O,inconclusive: 37.2%
19,CCN(CC)P(c1n(C)cc[n+]1C)N(CC)CC,inconclusive: 82.2%
20,C/C(=N\N=C(N)N)c1ccccc1,inconclusive: 122%
21,CCn1c(O)c(N=Nc2cccc(S(=O)(=O)N3CCOCC3)c2)c(=O)n(CC)c1=S,inconclusive: 154%
22,COc1ccc(NC(=O)c2cn(CCC#N)nc2-c2cccc([N+](=O)[O-])c2)cc1,inconclusive: 109%
23,O=P1(NCCCn2cc[n+](Cc3nc4ccccc4[nH]3)c2)C=C(c2ccccc2)OC(c2ccccc2)=C1,inconclusive: 80.5%

# Quoted from the listing.
# Value for COc1ccc(NC(=O)c2cn(CCC#N)nc2-c2cccc([N+](=O)[O-])c2)cc1 under binding response (% of control): inconclusive: 109%
# Value for CN1C(=O)C(=Cc2sc(=O)n(-c3ccccc3)c2N2CCCCC2)C(=O)N(C)C1=O under binding response (% of control): inconclusive: 159%
